Reference: the supplement of paper PMC10727501
The list shows a part of the results. This data set is noisy: repeats of one test often differ as much as different tests do.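 Researchers measured free-swimming zebrafish larvae's O-bend response probability to dark flashes (naive: first five; training: remaining flashes of four 60-flash blocks; test: later 60-flash block) and OMR turning toward alternating leftward/rightward LED motion. Six treated larvae were compared to sixty 0.1% DMSO controls, with |SSMD|≥2 marking a hit.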

Key:
Conditions in all cases: 10 µM; pre-incubation: 30-90 min
[1] = test system: Danio rerio larvae (5 dpf, TLF); assay: OMR-Perf (SSMD vs DMSO vehicle); higher = higher than vehicle (e.g. higher dark-flash O-bend response probability, or better optomotor performance)
[2] = test system: Danio rerio larvae (5 dpf, TLF); assay: Prob-Test (SSMD vs DMSO vehicle); higher = higher than vehicle (e.g. higher dark-flash O-bend response probability, or better optomotor performance)
[3] = test system: Danio rerio larvae (5 dpf, TLF); assay: Prob-Naive (SSMD vs DMSO vehicle); higher = higher than vehicle (e.g. higher dark-flash O-bend response probability, or better optomotor performance)
[4] = test system: Danio rerio larvae (5 dpf, TLF); assay: Prob-Train (SSMD vs DMSO vehicle); higher = higher than vehicle (e.g. higher dark-flash O-bend response probability, or better optomotor performance)

| Structure (SMILES) | OMR-Perf [1] | Prob-Test [2] | Prob-Naive [3] | Prob-Train [4] |
| --- | --- | --- | --- | --- |
| O=C([O-])c1ccccc1[O-].[Bi+3].[OH-] [Bismuth Subsalicylate] | -0.187 | -0.203 | 0.13 | -0.121 |
| Cl.O=C1OC(CN2CCOCC2)CN1/N=C/c1ccc([N+](=O)[O-])o1 (configuration not stated) [Furaltadone HCl] | -0.375 | 0.0552 | 0.105 | 0.124 |
| CO[C@H]1C[C@H]2CC[C@@H](C)[C@@](O)(O2)C(=O)C(=O)N2CCCC[C@H]2C(=O)O[C@H]([C@H](C)C[C@@H]2CC[C@H](OP(C)(C)=O)[C@H](OC)C2)CC(=O)[C@H](C)/C=C(\C)[C@@H](O)[C@@H](OC)C(=O)[C@H](C)C[C@H](C)/C=C/C=C/C=C/1C [Ridaforolimus (Deforolimus, MK-8669)] | 0.876 | 0.33 | 0.00644 | 0.019 |
| NC(=O)Nc1sc(-c2ccc(F)cc2)cc1C(N)=O | 0.139 | 0.26 | -0.137 | 0.103 |
| CCn1cc(C(=O)O)c(=O)c2cc(F)c(N3CCNC(C)C3)c(F)c21.Cl (configuration not stated) [Lomefloxacin HCl] | 0.325 | 0.168 | 0.402 | 0.365 |
| C=C1[C@H](CO)[C@@H](O)C[C@@H]1n1cnc2c(=O)nc(N)[nH]c21.O [Entecavir Hydrate] | 0.36 | 0.132 | -0.533 | -0.286 |
| CCOC(=O)[C@H](CCc1ccccc1)N[C@@H](C)C(=O)N1Cc2cc(OC)c(OC)cc2C[C@H]1C(=O)O.Cl [Moexipril HCl] | -0.0369 | -0.347 | -0.34 | -0.0365 |
| COc1ccccc1OCC(O)CN1CCN(CC(=O)Nc2c(C)cccc2C)CC1.Cl.Cl (configuration not stated) [Ranolazine 2HCl] | 0.104 | -0.07 | 0.42 | 0.39 |
| CC(=O)c1c(C)c2cnc(Nc3ccc(N4CCNCC4)cn3)nc2n(C2CCCC2)c1=O.O=S(=O)(O)CCO | -0.121 | 0.0517 | -0.239 | 0.0376 |
| COc1ccc(C(=O)Nc2sc3c(c2C(N)=O)CCCC3)cc1OC | 0.0577 | -0.458 | -0.499 | -1.08 |
| COC1CCN(C(=O)c2cc(Cc3n[nH]c(=O)c4ccccc34)ccc2F)CC1 | -0.0251 | 0.44 | 0.446 | 0.558 |
| C[C@H](CCC(=O)O)[C@@H]1CC[C@H]2[C@H]3[C@@H](CC[C@@]21C)[C@@]1(C)CC[C@@H](O)C[C@H]1C[C@@H]3O [Ursodiol] | 0.103 | 0.164 | -0.193 | 0.425 |
| Cn1cc(-c2[nH]c3cc(NC(=O)[C@H](N)C4CCCCC4)cc4c3c2C=NNC4=O)cn1 | -0.137 | -0.543 | 0.538 | -0.0832 |
| CC1(C)SC2C(NC(=O)[C@H](NC(=O)N3CCNC3=O)c3ccccc3)C(=O)N2C1C(=O)O.[Na] (some centres not stated) [Azlocillin sodium salt] | -0.106 | -0.046 | -0.265 | -0.0449 |
| C[C@@H]1CN(CC(=O)Nc2ccc3c(c2)Cc2cccc(-c4cc(=O)cc(N5CCOCC5)o4)c2S3)C[C@H](C)O1 | -0.346 | -0.411 | 0.173 | -0.00194 |
| COc1ccc2c(c1)c(CC(=O)N1CCOCC1)c(C)n2C(=O)c1ccc(Cl)cc1 | -0.468 | -1.52 | -1.08 | -3.2 |
| COc1cc(N2CCN(C)CC2)ccc1Nc1nccc(-c2cn(C)c3cnccc23)n1 | -0.481 | 0.155 | 0.227 | 0.648 |
| Nc1ncn([C@@H]2O[C@H](CO)[C@@H](O)[C@@H]2O)c(=O)n1 [Azacitidine] | -0.832 | 0.228 | -0.264 | 0.51 |
| NC(=O)c1cccc(-c2cccc(OC(=O)NC3CCCCC3)c2)c1 | -0.366 | -0.562 | -0.487 | -0.192 |
| CCCc1cc2c(N3CCN(C4=NCC(C)(C)S4)CC3)ncnc2s1 [MI-2 (Menin-MLL Inhibitor)] | -0.727 | -1 | -0.268 | -0.937 |
| COC(=O)Nc1nc2ccc(Sc3ccccc3)cc2[nH]1 [Fenbendazole] | -0.728 | -0.678 | -0.315 | 0.00741 |
| CN/C(=N\C#N)NCCSCc1nc[nH]c1C [Cimetidine] | -0.0682 | 0.493 | 0.357 | 0.57 |
| C[C@H]1NC(=O)NC1=O [Methylhydantoin-5-(D)] | -0.315 | -0.157 | 0.163 | 0.384 |

Record cards, as listed above. Values in the order: OMR-Perf [1]	Prob-Test [2]	Prob-Naive [3]	Prob-Train [4]
COc1ccc2c(c1)c(CC(=O)N1CCOCC1)c(C)n2C(=O)c1ccc(Cl)cc1 is listed with -0.468	-1.52	-1.08	-3.2
CN/C(=N\C#N)NCCSCc1nc[nH]c1C [Cimetidine] is listed with -0.0682	0.493	0.357	0.57
